Values quoted from earlier work as cited in article PMC12475274, “Harnessing indole scaffolds to identify small-molecule IRE1α inhibitors modulating XBP1 mRNA splicing” (Nature Communications, 2025).

Assays:
pIRE1α kinase = details: read-out: pIRE1α kinase enzymatic activity IC50; ref Concha et al., 2015; cited from earlier work
phosphorylated IRE1α = details: read-out: binding affinity toward phosphorylated IRE1α, IC50; competitive binding assay; ref Concha et al., 2015; cited from earlier work
dephosphorylated IRE1α = details: read-out: binding affinity toward dephosphorylated IRE1α, IC50; competitive binding assay; ref Concha et al., 2015; cited from earlier work

## CN[C@@H]1C[C@H]2O[C@@](C)([C@@H]1OC)n1c3ccccc3c3c4c(c5c6ccccc6n2c5c31)C(=O)NC4 [STS, staurosporine]
pIRE1α kinase
  IC50: 3 nM
Phosphorylated IRE1α
  IC50: 30 nM
Dephosphorylated IRE1α
  IC50: 50 nM
